Assay results: PMC8446450, “Autosomal Recessive Cutis Laxa 1C Mutations Disrupt the Structure and Interactions of Latent TGFβ Binding Protein-4” (Frontiers in Genetics, 2021)
These are yes or no findings as the source states them, for the method shown.

Key:
[1] = biological target: Latent TGFβ binding protein-4 (LTBP4S) N-terminal region, wild type (human) (UniProt Q8N2S1); assay: SEC-MALS; 0.5 ml at approximately 0.4-1 mg/ml on Superdex 200 10/300GL, 10 mM Tris, 150 mM NaCl, pH 7.4; both purified
[2] = biological target: Latent TGFβ binding protein-4 (LTBP4S) N-terminal region, wild type (human) (UniProt Q8N2S1); assay: AUC; sedimentation velocity, 0.4-1 mg/ml, 10 mM Tris, 150 mM NaCl, pH 7.4, 45,000 rpm, 20°C; both purified
[3] = biological target: Latent TGFβ binding protein-4 (LTBP4S) C-terminal region, wild type (human) (UniProt Q8N2S1); assay: SEC-MALS; 0.5 ml at approximately 0.4-1 mg/ml on Superdex 200 10/300GL, 10 mM Tris, 150 mM NaCl, pH 7.4; both purified
[4] = biological target: Latent TGFβ binding protein-4 (LTBP4S) C-terminal region, wild type (human) (UniProt Q8N2S1); assay: AUC; sedimentation velocity, 0.4-1 mg/ml, 10 mM Tris, 150 mM NaCl, pH 7.4, 45,000 rpm, 20°C; both purified

| binding [1] | binding [2] | binding [3] | binding [4] | Binder |
| --- | --- | --- | --- | --- |
| no binding (tested: 0.4–1 mg/ml) | no binding (tested: 0.4–1 mg/ml) |  |  | Latent TGFβ binding protein-4 (LTBP4S) N-terminal region, wild type (domain or fragment, human, UniProt Q8N2S1-2 29-394, looked up, numbers count on: LTBP4S; N-glycosylated (PNGase-F shift); Biotinylated when immobilised on streptavidin biosensors in the fibronectin BLI experiment (general BLI methods); also called NWT; LTBP4 N-terminal region) GERLRVRFTPVVCGLRCVHGPTGSRCTPTCAPRNATSVDSGAPGGAAPGGPGFRAFLCPLICHNGGVCVKPDRCLCPPDFAGKFCQLHSSGARPPAPAVPGLTRSVYTMPLANHRDDEHGVASMVSVHVEHPQEASVVVHQVERVSGPWEEADAEAVARAEAAARAEAAAPYTVLAQSAPREDGYSDASGFGYCFRELRGGECASPLPGLRTQEVCCRGAGLAWGVHDCQLCSERLGNSERVSAPDGPCPTGFERVNGSCEDVDECATGGRCQHGECANTRGGYTCVCPDGFLLDSSRSSCISQHVISEAKGPCFRVLRDGGCSLPILRNITKQICCCSRVGKAWGRGCQLCPPFGSEGFREICPA |
|  |  | no binding (tested: 0.4–1 mg/ml) | no binding (tested: 0.4–1 mg/ml) | Latent TGFβ binding protein-4 (LTBP4S) C-terminal region, wild type (domain or fragment, human, UniProt Q8N2S1-2 1114-1557, looked up, numbers count on: LTBP4S; N-glycosylated (PNGase-F shift); also called CWT; C WT) RECYFDTAAPDACDNILARNVTWQECCCTVGEGWGSGCRIQQCPGTETAEYQSLCPHGRGYLAPSGDLSLRRDVDECQLFRDQVCKSGVCVNTAPGYSCYCSNGYYYHTQRLECIDNDECADEEPACEGGRCVNTVGSYHCTCEPPLVLDGSQRRCVSNESQSLDDNLGVCWQEVGADLVCSHPRLDRQATYTECCCLYGEAWGMDCALCPAQDSDDFEALCNVLRPPAYSPPRPGGFGLPYEYGPDLGPPYQGLPYGPELYPPPALPYDPYPPPPGPFARREAPYGAPRFDMPDFEDDGGPYGESEAPAPPGPGTRWPYRSRDTRRSFPEPEEPPEGGSYAGSLAEPYEELEAEECGILDGCTNGRCVRVPEGFTCRCFDGYRLDMTRMACVDINECDEAEAASPLCVNARCLNTDGSFRCICRPGFAPTHQPHHCAPARPRA |
